Results taken from PMC10754441.
No constants are given. Whether binding was seen depends on the method and setting. In cells and extracts the contact can be indirect. A yes stands for co-enrichment or nearness to the bait. Other partners may have been found.

Target: DjlA variant with a C-terminal HA-tag (DjlA-HA) (Caulobacter crescentus)
Assay: affinity purification with mass spectrometry; LC-MS/MS of DjlA-HA pull-downs (anti-HA affinity matrix) from soluble lysates of WT cells expressing DjlA-HA, grown with or without NAL (10 ug/mL); control WT without DjlA-HA

AcrB (from UniProt A0A0H3CCS3) was tested. Which binding did it give?
The binding was “binds”.
